{"source": "paper PMC5850324", "about": "“Interactions between the Hepatitis C Virus Nonstructural 2 Protein and Host Adaptor Proteins 1 and 4 Orchestrate Virus Release” (mBio, 2018)", "key": {"[1]": {"target": "T1, GLuc1-tagged μ subunit of the AP-1A complex (UniProt Q9BXS5)", "T1 sequence": "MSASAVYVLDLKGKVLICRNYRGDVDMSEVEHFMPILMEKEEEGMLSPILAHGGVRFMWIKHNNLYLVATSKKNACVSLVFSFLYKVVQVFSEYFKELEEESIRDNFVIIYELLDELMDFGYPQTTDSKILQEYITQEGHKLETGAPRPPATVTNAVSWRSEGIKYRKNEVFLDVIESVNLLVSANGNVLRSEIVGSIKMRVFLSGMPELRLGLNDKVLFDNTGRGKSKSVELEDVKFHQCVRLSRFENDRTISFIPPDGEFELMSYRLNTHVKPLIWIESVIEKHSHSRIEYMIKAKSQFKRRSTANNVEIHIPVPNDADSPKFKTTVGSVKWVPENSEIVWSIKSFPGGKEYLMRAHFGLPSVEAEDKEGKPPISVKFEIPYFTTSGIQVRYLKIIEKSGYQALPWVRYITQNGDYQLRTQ", "test": "split reporter; protein fragment complementation assay (split luciferase): GLuc1-AP μ subunit and GLuc2-HCV protein transfected pairwise into 293T cells; luciferase at 24 h; normalized luminescence ratio (NLR), positive if NLR >25 (>2.2 SD above a random reference set); mutant panels plotted relative to WT; NS2-AP-1B also tested after treatment with compound 7745, 12i, sunitinib or erlotinib"}, "[2]": {"target": "T2, GLuc1-tagged μ subunit of the AP-1B complex (UniProt Q9Y6Q5)", "T2 sequence": "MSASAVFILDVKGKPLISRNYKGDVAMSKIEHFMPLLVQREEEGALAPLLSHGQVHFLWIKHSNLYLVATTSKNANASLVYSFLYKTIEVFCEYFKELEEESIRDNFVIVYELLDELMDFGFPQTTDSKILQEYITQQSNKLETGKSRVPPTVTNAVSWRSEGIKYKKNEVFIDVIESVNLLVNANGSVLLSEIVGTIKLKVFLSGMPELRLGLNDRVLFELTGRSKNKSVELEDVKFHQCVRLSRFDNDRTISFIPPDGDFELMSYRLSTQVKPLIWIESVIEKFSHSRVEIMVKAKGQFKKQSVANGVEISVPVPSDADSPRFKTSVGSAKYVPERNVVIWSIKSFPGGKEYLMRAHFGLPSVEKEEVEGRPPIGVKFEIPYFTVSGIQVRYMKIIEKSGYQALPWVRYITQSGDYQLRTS", "test": "split reporter; protein fragment complementation assay (split luciferase): GLuc1-AP μ subunit and GLuc2-HCV protein transfected pairwise into 293T cells; luciferase at 24 h; normalized luminescence ratio (NLR), positive if NLR >25 (>2.2 SD above a random reference set); mutant panels plotted relative to WT; NS2-AP-1B also tested after treatment with compound 7745, 12i, sunitinib or erlotinib"}, "[3]": {"target": "T3, GLuc1-tagged μ subunit of the AP-4 complex (UniProt O00189)", "T3 sequence": "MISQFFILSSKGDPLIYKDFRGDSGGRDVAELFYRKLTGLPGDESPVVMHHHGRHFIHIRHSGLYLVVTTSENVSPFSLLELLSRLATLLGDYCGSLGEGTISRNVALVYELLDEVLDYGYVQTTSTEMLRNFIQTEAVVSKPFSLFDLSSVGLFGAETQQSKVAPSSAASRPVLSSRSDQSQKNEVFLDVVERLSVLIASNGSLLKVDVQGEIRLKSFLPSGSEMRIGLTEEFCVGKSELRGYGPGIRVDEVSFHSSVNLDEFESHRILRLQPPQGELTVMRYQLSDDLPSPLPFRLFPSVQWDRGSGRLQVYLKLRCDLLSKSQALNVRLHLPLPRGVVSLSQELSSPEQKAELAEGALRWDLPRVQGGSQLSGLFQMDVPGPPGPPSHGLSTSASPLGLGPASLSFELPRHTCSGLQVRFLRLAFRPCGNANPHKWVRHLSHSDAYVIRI", "test": "split reporter; protein fragment complementation assay (split luciferase): GLuc1-AP μ subunit and GLuc2-HCV protein transfected pairwise into 293T cells; luciferase at 24 h; normalized luminescence ratio (NLR), positive if NLR >25 (>2.2 SD above a random reference set); mutant panels plotted relative to WT; NS2-AP-1B also tested after treatment with compound 7745, 12i, sunitinib or erlotinib"}, "[4]": {"target": "T4, AP-1A (μ subunit), endogenous in Huh7.5 cells (human (endogenous in Huh7.5)) (UniProt Q9BXS5)", "T4 sequence": "T1 sequence", "test": "co-IP; membrane fractions of Huh7.5 cells transfected with J6/JFH HCV RNA (naive cells as control); cross-linker added; IP with anti-NS2, anti-AP-1A or anti-AP-4 antibodies, IgG controls"}, "[5]": {"target": "T5, AP-4 (μ subunit), endogenous in Huh7.5 cells (human (endogenous in Huh7.5)) (UniProt O00189)", "T5 sequence": "T3 sequence", "test": "co-IP; membrane fractions of Huh7.5 cells transfected with J6/JFH HCV RNA (naive cells as control); cross-linker added; IP with anti-NS2, anti-AP-1A or anti-AP-4 antibodies, IgG controls"}}, "note": "These are yes or no findings as the source states them, for the method shown. Binding seen in cells or lysates may run through a third protein. For some assays here: Tags and fused reporters may be left off the sequences shown."}
{"substance": "GLuc2-NS5B (hepatitis C virus nonstructural protein 5B)", "values": [{"measurement": "binding", "setting": "[1]", "result": "no binding"}, {"measurement": "binding", "setting": "[2]", "result": "no binding"}, {"measurement": "binding", "setting": "[3]", "result": "no binding"}]}
{"substance": "NS5B expressed from J6/JFH HCV RNA (hepatitis C virus (J6/JFH))", "values": [{"measurement": "binding", "setting": "[4]", "result": "no binding"}, {"measurement": "binding", "setting": "[5]", "result": "no binding"}]}
